Laboratory results taken from publication doi:10.1101/2021.11.29.470468.
Like-named read-outs stand apart in the source and are kept apart here. Results are given in words; binding and its absence hold for the method and conditions named. Some binding calls cover weakened binding; strength is not graded here.

Amino acid sequences for entries named in this document (tags omitted).
UniProt Q8K1M6: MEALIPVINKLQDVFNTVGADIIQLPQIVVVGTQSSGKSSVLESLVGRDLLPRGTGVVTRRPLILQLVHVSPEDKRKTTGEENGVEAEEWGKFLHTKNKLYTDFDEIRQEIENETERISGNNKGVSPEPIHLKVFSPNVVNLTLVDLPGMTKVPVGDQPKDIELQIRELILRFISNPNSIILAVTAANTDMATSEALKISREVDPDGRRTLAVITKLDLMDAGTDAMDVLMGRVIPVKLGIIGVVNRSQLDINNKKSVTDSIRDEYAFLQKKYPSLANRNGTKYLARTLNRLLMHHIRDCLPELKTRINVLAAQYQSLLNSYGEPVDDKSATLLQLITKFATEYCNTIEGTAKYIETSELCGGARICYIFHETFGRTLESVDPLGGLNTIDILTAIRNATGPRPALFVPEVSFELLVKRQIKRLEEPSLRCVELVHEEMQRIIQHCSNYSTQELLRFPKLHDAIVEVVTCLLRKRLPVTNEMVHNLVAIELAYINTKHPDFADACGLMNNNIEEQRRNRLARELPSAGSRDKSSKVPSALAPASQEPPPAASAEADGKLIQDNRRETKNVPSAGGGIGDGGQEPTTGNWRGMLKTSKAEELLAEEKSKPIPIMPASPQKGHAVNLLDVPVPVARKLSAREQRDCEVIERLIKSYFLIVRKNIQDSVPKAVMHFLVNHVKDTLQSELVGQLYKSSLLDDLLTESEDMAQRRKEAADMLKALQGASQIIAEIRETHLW

Columns and labels:
[1] = biological target: dynamin-related protein 1 (DRP1) (mouse (endogenous in heart ventricles)) (UniProt Q8K1M6); experiment: native gel or EMSA
[2] = biological target: dynamin-related protein 1 (DRP1) (mouse (endogenous in heart ventricles)) (UniProt Q8K1M6); experiment: native gel or EMSA; remark: listed apart in the source

binding [1]: binds | binding [2]: binds
Substance: dynamin-related protein 1 (DRP1) (from UniProt Q8K1M6 1-736)
